Laboratory results reported in paper PMC11496777.
No constants are given. Whether binding was seen depends on the method and setting. Binding seen in cells or lysates may run through a third protein. Some entries that bind do so weakly or less than the wild type. Where a sequence is shown, tags or fusion partners need not be part of it.

T1: Flag-tagged mouse MRTF-A (myocardin-related transcription factor A) (mouse) (UniProt Q8K4J6)
T1 sequence: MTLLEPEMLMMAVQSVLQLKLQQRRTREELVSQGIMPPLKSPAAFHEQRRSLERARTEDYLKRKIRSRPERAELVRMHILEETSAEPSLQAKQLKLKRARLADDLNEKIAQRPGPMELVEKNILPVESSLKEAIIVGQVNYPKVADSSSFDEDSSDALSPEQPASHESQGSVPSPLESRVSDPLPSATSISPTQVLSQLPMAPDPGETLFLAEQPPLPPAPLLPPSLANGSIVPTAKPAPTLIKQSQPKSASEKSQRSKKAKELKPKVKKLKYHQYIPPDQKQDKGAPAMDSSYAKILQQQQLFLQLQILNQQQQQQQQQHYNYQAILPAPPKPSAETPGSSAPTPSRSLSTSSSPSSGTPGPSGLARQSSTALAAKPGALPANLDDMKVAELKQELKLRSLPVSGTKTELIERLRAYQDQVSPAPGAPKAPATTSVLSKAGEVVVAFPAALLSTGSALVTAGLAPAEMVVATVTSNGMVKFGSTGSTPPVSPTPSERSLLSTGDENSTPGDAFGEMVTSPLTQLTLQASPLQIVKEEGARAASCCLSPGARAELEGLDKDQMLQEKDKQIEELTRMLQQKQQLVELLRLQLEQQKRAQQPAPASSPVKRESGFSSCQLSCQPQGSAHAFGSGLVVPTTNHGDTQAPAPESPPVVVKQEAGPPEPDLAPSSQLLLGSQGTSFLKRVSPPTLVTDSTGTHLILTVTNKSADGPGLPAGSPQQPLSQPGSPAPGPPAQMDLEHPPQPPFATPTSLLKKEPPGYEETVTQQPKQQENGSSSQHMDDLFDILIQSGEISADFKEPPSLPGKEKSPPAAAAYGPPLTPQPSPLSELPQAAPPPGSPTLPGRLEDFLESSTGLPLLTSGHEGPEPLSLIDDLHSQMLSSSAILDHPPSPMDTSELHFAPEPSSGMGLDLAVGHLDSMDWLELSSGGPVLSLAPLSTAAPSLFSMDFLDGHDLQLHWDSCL

T2: HA-tagged human CRP2 (cysteine and glycine-rich protein 2) (human) (UniProt Q16527)
T2 sequence: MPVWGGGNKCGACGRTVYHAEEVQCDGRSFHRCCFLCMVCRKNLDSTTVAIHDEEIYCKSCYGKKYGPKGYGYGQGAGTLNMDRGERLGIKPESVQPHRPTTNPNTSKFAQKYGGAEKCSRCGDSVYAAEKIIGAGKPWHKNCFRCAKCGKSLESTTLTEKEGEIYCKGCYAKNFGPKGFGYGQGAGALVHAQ


Legend:
[1] = target: T1, Flag-tagged mouse MRTF-A (myocardin-related transcription factor A) (mouse); test: co-IP; IP mixtures (500 ul) of the indicated in vitro translated proteins (TNT SP6 wheat germ extract), IP/IB with the indicated antibodies; mixes with or without CRP2BP or CRP2BP637
[2] = target: T2, HA-tagged human CRP2 (cysteine and glycine-rich protein 2) (human); test: as above

Row | Binder | binding [1] | binding [2]
1 | HA-tagged human CRP2 (cysteine and glycine-rich protein 2) (protein, UniProt Q16527 1-193) MPVWGGGNKCGACGRTVYHAEEVQCDGRSFHRCCFLCMVCRKNLDSTTVAIHDEEIYCKSCYGKKYGPKGYGYGQGAGTLNMDRGERLGIKPESVQPHRPTTNPNTSKFAQKYGGAEKCSRCGDSVYAAEKIIGAGKPWHKNCFRCAKCGKSLESTTLTEKEGEIYCKGCYAKNFGPKGFGYGQGAGALVHAQ | binds | –
2 | Myc-tagged SRF S103A (non-phosphorylation mutant) (protein, UniProt P11831 1-508) MLPTQAGAAAALGRGSALGGSLNRTPTGRPGGGGGTRGANGGRVPGNGAGLGPGRLEREAAAAAATTPAPTAGALYSGSEGDSESGEEEELGAERRGLKRSLAEMEIGMVVGGPEASAAATGGYGPVSGAVSGAKPGKKTRGRVKIKMEFIDNKLRRYTTFSKRKTGIMKKAYELSTLTGTQVLLLVASETGHVYTFATRKLQPMITSETGKALIQTCLNSPDSPPRSDPTTDQRMSATGFEETDLTYQVSESDSSGETKDTLKPAFTVTNLPGTTSTIQTAPSTSTTMQVSSGPSFPITNYLAPVSASVSPSAVSSANGTVLKSTGSGPVSSGGLMQLPTSFTLMPGGAVAQQVPVQAIQVHQAPQQASPSRDSSTDLTQTSSSGTVTLPATIMTSSVPTTVGGHMMYPSPHAVMYAPTSGLGDGSLTVLNAFSQAPSTMQVSHSQVQEPGGVPQVFLTASSGTVQIPVSAVQLHQMAVIGQQAGSSSNLTELQVVNLDTAHSTKSE | binds | binds
3 | CRP2BP637, a mutant CRP2BP that lacks the HAT domain (domain or fragment, UniProt Q9H8E8-1 1-637) MDSSIHLSSLISRHDDEATRTSTSEGLEEGEVEGETLLIVESEDQASVDLSHDQSGDSLNSDEGDVSWMEEQLSYFCDKCQKWIPASQLREQLSYLKGDNFFRFTCSDCSADGKEQYERLKLTWQQVVMLAMYNLSLEGSGRQGYFRWKEDICAFIEKHWTFLLGNRKKTSTWWSTVAGCLSVGSPMYFRSGAQEFGEPGWWKLVHNKPPTMKPEGEKLSASTLKIKAASKPTLDPIITVEGLRKRASRNPVESAMELKEKRSRTQEAKDIRRAQKEAAGFLDRSTSSTPVKFISRGRRPDVILEKGEVIDFSSLSSSDRTPLTSPSPSPSLDFSAPGTPASHSATPSLLSEADLIPDVMPPQALFHDDDEMEGDGVIDPGMEYVPPPAGSVASGPVVGVRKKVRGPEQIKQEVESEEEKPDRMDIDSEDTDSNTSLQTRAREKRKPQLEKDTKPKEPRYTPVSIYEEKLLLKRLEACPGAVAMTPEARRLKRKLIVRQAKRDRGLPLFDLDQVVNAALLLVDGIYGAKEGGISRLPAGQATYRTTCQDFRILDRYQTSLPSRKGFRHQTTKFLYRLVGSEDMAVDQSIVSPYTSRILKPYIRRDYETKPPKLQLLSQIRSHLHRSDPHWTPEPDAP | binds | –

More lines, now with the values ahead:

Row | binding [1] | binding [2] | Binder
4 | binds | – | human CRP2BP (CSRP2-binding protein) (protein, UniProt Q9H8E8-1 1-782) MDSSIHLSSLISRHDDEATRTSTSEGLEEGEVEGETLLIVESEDQASVDLSHDQSGDSLNSDEGDVSWMEEQLSYFCDKCQKWIPASQLREQLSYLKGDNFFRFTCSDCSADGKEQYERLKLTWQQVVMLAMYNLSLEGSGRQGYFRWKEDICAFIEKHWTFLLGNRKKTSTWWSTVAGCLSVGSPMYFRSGAQEFGEPGWWKLVHNKPPTMKPEGEKLSASTLKIKAASKPTLDPIITVEGLRKRASRNPVESAMELKEKRSRTQEAKDIRRAQKEAAGFLDRSTSSTPVKFISRGRRPDVILEKGEVIDFSSLSSSDRTPLTSPSPSPSLDFSAPGTPASHSATPSLLSEADLIPDVMPPQALFHDDDEMEGDGVIDPGMEYVPPPAGSVASGPVVGVRKKVRGPEQIKQEVESEEEKPDRMDIDSEDTDSNTSLQTRAREKRKPQLEKDTKPKEPRYTPVSIYEEKLLLKRLEACPGAVAMTPEARRLKRKLIVRQAKRDRGLPLFDLDQVVNAALLLVDGIYGAKEGGISRLPAGQATYRTTCQDFRILDRYQTSLPSRKGFRHQTTKFLYRLVGSEDMAVDQSIVSPYTSRILKPYIRRDYETKPPKLQLLSQIRSHLHRSDPHWTPEPDAPLDYCYVRPNHIPTINSMCQEFFWPGIDLSECLQYPDFSVVVLYKKVIIAFGFMVPDVKYNEAYISFLFVHPEWRRAGIATFMIYHLIQTCMGKDVTLHVSASNPAMLLYQKFGFKTEEYVLDFYDKYYPLESTECKHAFFLRLRR
5 | binds | binds | Myc-tagged human SRF (serum response factor), wild-type (protein, UniProt P11831 1-508) MLPTQAGAAAALGRGSALGGSLNRTPTGRPGGGGGTRGANGGRVPGNGAGLGPGRLEREAAAAAATTPAPTAGALYSGSEGDSESGEEEELGAERRGLKRSLSEMEIGMVVGGPEASAAATGGYGPVSGAVSGAKPGKKTRGRVKIKMEFIDNKLRRYTTFSKRKTGIMKKAYELSTLTGTQVLLLVASETGHVYTFATRKLQPMITSETGKALIQTCLNSPDSPPRSDPTTDQRMSATGFEETDLTYQVSESDSSGETKDTLKPAFTVTNLPGTTSTIQTAPSTSTTMQVSSGPSFPITNYLAPVSASVSPSAVSSANGTVLKSTGSGPVSSGGLMQLPTSFTLMPGGAVAQQVPVQAIQVHQAPQQASPSRDSSTDLTQTSSSGTVTLPATIMTSSVPTTVGGHMMYPSPHAVMYAPTSGLGDGSLTVLNAFSQAPSTMQVSHSQVQEPGGVPQVFLTASSGTVQIPVSAVQLHQMAVIGQQAGSSSNLTELQVVNLDTAHSTKSE
6 | binds | binds | Myc-tagged SRF S103D (pseudo-phosphorylation mutant) (protein, UniProt P11831 1-508) MLPTQAGAAAALGRGSALGGSLNRTPTGRPGGGGGTRGANGGRVPGNGAGLGPGRLEREAAAAAATTPAPTAGALYSGSEGDSESGEEEELGAERRGLKRSLDEMEIGMVVGGPEASAAATGGYGPVSGAVSGAKPGKKTRGRVKIKMEFIDNKLRRYTTFSKRKTGIMKKAYELSTLTGTQVLLLVASETGHVYTFATRKLQPMITSETGKALIQTCLNSPDSPPRSDPTTDQRMSATGFEETDLTYQVSESDSSGETKDTLKPAFTVTNLPGTTSTIQTAPSTSTTMQVSSGPSFPITNYLAPVSASVSPSAVSSANGTVLKSTGSGPVSSGGLMQLPTSFTLMPGGAVAQQVPVQAIQVHQAPQQASPSRDSSTDLTQTSSSGTVTLPATIMTSSVPTTVGGHMMYPSPHAVMYAPTSGLGDGSLTVLNAFSQAPSTMQVSHSQVQEPGGVPQVFLTASSGTVQIPVSAVQLHQMAVIGQQAGSSSNLTELQVVNLDTAHSTKSE
